# In PubChem BioAssay AID540276 (National Center for Advancing Translational Sciences (NCATS), 2011):
# Hit rate of the full screen: of about 300,000 compounds, about 5,400 (1.8%) were called active. This list was built around the results that the source calls inconclusive (neither active nor inactive); the mix of calls is not that of the screen. Calls follow the shape of the full dose curve; tested in HEK293 cells. Where the call is inconclusive, the potency comes from a doubtful curve fit.
# Experiment: qHTS for inhibitors of binding or entry into cells for Marburg Virus
# Conditions: Marburg virus pseudotyped entry inhibition, cell reporter; series mostly up to 37.8 µM
# Potency is read from the fitted curve at half-maximal effect.
row,Structure (SMILES),Potency
1,O=C(c1noc2c1CCCC2)N1CCc2ccccc2C1,"inconclusive: 35.5 µM [inhibitor, single point]"
2,CC(=O)Oc1cc(C(C)C)c(OCCN(C)C)cc1C,"inconclusive: 0.0079 µM [inhibitor, full curve, poor fit]"
3,COc1ccc(NC(=O)NNC(=O)c2ccccc2-n2cccc2)cc1OC,inactive
4,CN(C(=O)COC(=O)c1cc(=O)[nH]c2ccccc12)C1CCCCC1,"inconclusive: 2.82 µM [activator, partial curve, poor fit]"
5,O=S(=O)(NCCNc1nccc(C(F)(F)F)n1)c1ccccc1,"inconclusive: 3.55 µM [inhibitor, single point]"
6,COCCn1cnnc1SCC(=O)Nc1sc2c(c1C#N)CCC2,"inconclusive: 1 µM [inhibitor, partial curve, poor fit]"
7,O=C(Nc1ccccc1C(F)(F)F)N1CCCCCC1,inactive
8,CCn1c(/C=C/c2c(C)[nH]c3ccccc23)nc2ccccc2c1=O,"inconclusive: 3.98 µM [inhibitor, partial curve, poor fit]"
9,Cc1ccccc1-c1nc(-c2ccccn2)no1,"inconclusive: 35.5 µM [inhibitor, single point]"
10,CC(CN1CCCCC1)OC(=O)c1cccc(F)c1 (stereo not drawn),"inconclusive: 5.62 µM [inhibitor, single point]"
11,Cc1ccc(-c2nc(S(=O)(=O)c3ccc(C)cc3)c(N(C)C)o2)cc1,"inconclusive: 0.794 µM [activator, single point]"
12,Cc1ccc(S(=O)(=O)N(C)c2ccc(OCC(=O)Nc3nc4c(ccc5ccccc54)s3)cc2)cc1,active: 1.41 µM
13,O=C(O)c1ccc2c(c1)C(=O)N(c1ncccn1)C2=O,"inconclusive: 5.62 µM [activator, full curve]"
14,OC(CNCC1CCCO1)Cn1c2ccccc2c2ccccc21 (stereo not drawn),"inconclusive: 12.6 µM [inhibitor, partial curve, poor fit]"
15,Cc1ccc(C(O)Cn2cc([N+](=O)[O-])nc2C)cc1 (stereo not drawn),"inconclusive: 3.16 µM [inhibitor, partial curve, poor fit]"
16,CSc1nnc(NC(=O)c2nc(S(=O)(=O)Cc3cccc(C)c3)ncc2Cl)s1,"inconclusive: 35.5 µM [inhibitor, single point]"
17,CCc1ccc(C(=O)COC(=O)C(NC(=O)C2CCC(C)CC2)C(C)C)cc1 (stereo not drawn),inactive
18,O=C(Nc1nc2ccccc2[nH]1)c1ccc(F)cc1,"inconclusive: 10.3 µM [inhibitor, partial curve, poor fit]"
19,CCOC(=O)c1cnc2ccc(OCC)cc2c1NCc1ccccc1OC,"inconclusive: 8.91 µM [inhibitor, partial curve, poor fit]"
20,CCOC(=O)CC(=O)CSc1nc2ccc(C)cc2cc1C#N,inactive
21,COc1ccc2c(CCNC(=O)CN3C(=O)c4ccccc4C3=O)c[nH]c2c1,"inconclusive: 0.13 µM [inhibitor, single point]"
22,CC(NC(=O)c1cc2ccccc2o1)c1cccs1 (stereo not drawn),"inconclusive: 16.4 µM [activator, partial curve, poor fit]"
23,COc1cc(/C=C/C(=O)Nc2ccc(OC)c(S(=O)(=O)N3CCOCC3)c2)ccc1OCC#N,"inconclusive: 5.62 µM [activator, single point]"

row,Structure (SMILES),Potency
1,CCOc1ccc(NC(=O)c2ccc(NC(=O)Cc3n[nH]c(=O)c4ccccc34)cc2)cc1,"inconclusive: 7.08 µM [inhibitor, partial curve, poor fit]"
2,Cc1ccc([N+](=O)[O-])cc1N/C=C1\CCc2ccccc2C1=O,inactive
3,CC(=O)C1=C(C)NC(SCC(=O)c2ccc(Cl)cc2)=C(C#N)C1CC(C)C (stereo not drawn),inactive
4,O=C(COC(=O)c1ccco1)c1ccccc1,inactive
5,COc1ccc(C2C(C#N)=C(N)Nc3nc4ccccc4n32)cc1 (stereo not drawn),inactive
6,CC(C)(C)NC(=O)COc1ccc(CNCc2ccccn2)cc1,"inconclusive: 3.98 µM [activator, full curve, poor fit]"
7,CSc1nc2c(c(=O)[nH]1)C(c1ccccc1)C1=C(CC(C)(C)CC1=O)N2 (stereo not drawn),"inconclusive: 1.41 µM [activator, partial curve, poor fit]"
8,O=C(NC1CCCC1)c1cc(-c2cccs2)on1,"inconclusive: 0.58 µM [activator, full curve]"
9,CCn1c(Cc2ccccc2)nnc1SCC(=O)Nc1cc(C)on1,inactive
10,O=C(Cn1c(=O)c(=O)n(Cc2ccccc2)c2ccc(Cl)cc21)Nc1ccc(F)cc1F,"inconclusive: 3.55 µM [inhibitor, single point]"
11,COc1cccc(/C(C#N)=C/c2c(-c3ccc(Cl)cc3)nc3c(C)cccn23)c1,"inconclusive: 15.8 µM [inhibitor, partial curve, poor fit]"
12,Cc1ccc(C)c(NC(=O)/C(C#N)=C/c2ccc[nH]2)c1,inactive
13,O=C(Cc1cccs1)Nc1cccnc1,inactive
14,CCC(=O)C(CCN1CCOCC1)(c1ccccc1)c1ccccc1,"inconclusive: 11.2 µM [inhibitor, partial curve, poor fit]"
15,Cc1cc(=O)[nH]c(SCC(=O)Nc2ccccc2[N+](=O)[O-])n1,inactive
16,CC1CC(C)CN(S(=O)(=O)c2ccc(C(=O)NNC(=O)c3ccccc3F)cc2)C1 (stereo not drawn),"inconclusive: 6.31 µM [activator, single point]"
17,O=C(Cc1ccccc1[N+](=O)[O-])NCC(=O)c1ccc2c(c1)OCO2,inactive
18,CCOC(=O)c1ccc(NC(=S)NNC(=O)C2(C)CC2(Cl)Cl)cc1 (stereo not drawn),inactive
19,O=C(CCS(=O)(=O)c1cccs1)N1CCN(c2ccc(F)cc2)CC1,"inconclusive: 7.3 µM [activator, partial curve, poor fit]"
20,Cc1nn(CC(=O)N2CCN(c3ccccc3)CC2)c(=O)c2cccn12,inactive
21,COc1ccccc1NC(=O)CN1CCC(n2nnc3cc(F)ccc32)CC1,inactive
22,COc1ccc(N=C2C(=Nc3ccc(OC)cc3)N(c3ccc(OC)cc3)C(=S)N2C(=O)c2ccc(OC)cc2)cc1,inactive
23,O=C(Nc1nnc(-c2ccc(F)cc2)s1)C1CCN(S(=O)(=O)c2ccc(Cl)cc2)CC1,inactive

row,Structure (SMILES),Potency
1,COC(=O)c1ccccc1OCCCOc1ccc(C=O)cc1OC,inactive
2,CCOc1ccccc1C1CC(c2cccs2)=NN1S(C)(=O)=O (stereo not drawn),"inconclusive: 6.31 µM [inhibitor, single point]"
3,O=[N+]([O-])c1ccc(-c2cnc(SC(c3ccccc3)c3ccccc3)[nH]2)cc1,"inconclusive: 6.31 µM [inhibitor, single point]"
4,CC(C)(C)NC(=O)C12CCC(C)(c3nc4ccccc4nc31)C2(C)C (stereo not drawn),"inconclusive: 25.9 µM [inhibitor, single point]"
5,Cc1cc(C=O)c(C)n1C1CCCCC1,"inconclusive: 3.98 µM [inhibitor, partial curve, poor fit]"
6,Cc1cc(C(=O)Nc2ccccn2)cs1,"inconclusive: 7.3 µM [inhibitor, partial curve, poor fit]"
7,COC(=O)c1c(NC(NC(=O)C(C)C)C(Cl)(Cl)Cl)sc2c1CCCC2 (stereo not drawn),"inconclusive: 16.4 µM [inhibitor, partial curve, poor fit]"
8,COCC1CCN(C(=O)C2CCC(=O)N(CCc3cccc(F)c3)C2)CC1 (stereo not drawn),"inconclusive: 35.5 µM [activator, single point]"
9,CC(=O)Nc1ccc(OCC(=O)N2CCC(Cc3ccccc3)CC2)cc1,inactive
10,O=C1c2ccccc2NC(c2ccccc2)N1/N=C/c1ccccc1 (stereo not drawn),"inconclusive: 10 µM [inhibitor, partial curve, poor fit]"
11,O=C(O)c1cc(-n2[nH]c(=O)c3ccccc3c2=O)ccc1Cl,"inconclusive: 11.2 µM [activator, partial curve]"
12,CSC(SC)=C(C#N)C(=O)c1ccccc1,inactive
13,O=C1CN(C(=O)CSc2nc3cc(Cl)ccc3c(=O)n2Cc2ccccc2)c2ccccc2N1,"inconclusive: 7.08 µM [inhibitor, full curve, poor fit]"
14,CCN(CC(=O)NCCCn1ccnc1)S(=O)(=O)c1ccc(C)cc1,"inconclusive: 17.8 µM [activator, partial curve]"
15,CCOC(=O)c1c(C)oc2c(Cl)cc(NS(=O)(=O)c3ccc(Cl)c(C)c3)cc12,"inconclusive: 35.5 µM [inhibitor, single point]"
16,CCC1C(c2ccccc2)N(C)C(c2ccccc2)CC1(O)c1ccccc1 (stereo not drawn),"inconclusive: 11.2 µM [inhibitor, partial curve, poor fit]"
17,Cc1ccc(C(=O)OCC(=O)NCc2cccc(Cl)c2)cc1S(=O)(=O)N1CCCCC1,"inconclusive: 31.6 µM [inhibitor, single point]"
18,COC(=O)c1ccc(Sc2nnnn2-c2ccccc2)c([N+](=O)[O-])c1,"inconclusive: 22.4 µM [inhibitor, single point]"
19,COc1ccccc1N(C(=O)c1ccncc1)c1nc(-c2ccc([N+](=O)[O-])cc2)cs1,"inconclusive: 29.1 µM [inhibitor, single point]"
20,Cc1ccc(NC(=S)N(CCCN2CCOCC2)Cc2ccco2)cc1Cl,"inconclusive: 6.31 µM [inhibitor, single point]"
21,CC12CCC(O)CC1=CCC1C2CCC2(C)c3[nH]ncc3CC12 (stereo not drawn),inactive
22,COc1ccc(-c2cc(C(F)F)n3ncc(C(=O)Nc4cccc(S(=O)(=O)N5CCOCC5)c4)c3n2)cc1,"inconclusive: 1.26 µM [inhibitor, partial curve, poor fit]"
